Measured values reported in patent US6630347B1, “Endothelial NOS transgenic animals and methods of use” (The General Hospital Corporation, priority 1996, dated 2003).

Assay: Physiological data (blood gases, MABP) before MCA occlusion and after ischemia
Type: in vivo, mice
Details: for pCO2 after / pH after / pO2 after: 24 hrs after ischemia
Protocol: The right femoral artery was cannulated with PE-10 polyethylene tubing for arterial blood pressure measurement (Gould, Oxnard, Calif.) and blood gas determination (Corning 178, Ciba Corning Diag., Medford, Mass.). Rectal temperature was maintained between 36.5-37.5° C. with a homeothermic blanket system (YSI, Yellow Springs, Ohio). […] The investigator was blinded to the treatment group in this protocol.

[1] = protocol 2, Wt SV-129, 10 min before MCA occlusion (before first dose)
[2] = protocol 2, eNOS mutant, 10 min before MCA occlusion (before first dose)
[3] = protocol 1, eNOS mutant, hydralazine, 10 min before MCA occlusion
[4] = protocol 1, eNOS mutant, hydralazine

With `NC(=N[N+](=O)[O-])NCCCC(N)C(=O)O` [L-NA, L-nitroarginine] as the compound, how does the pCO2 before [1] read?
The pCO2 before was 47.8 ± 3.5 mmHg.

What about the pH before [1] of the same compound?
Its pH before is 7.36 ± 0.04.

What about the pO2 before [1] of the same compound?
The pO2 before was 142 ± 17 mmHg.

What about the pCO2 after (protocol 2, Wt SV-129) of the same compound?
The pCO2 after was 49.3 ± 6.3 mmHg.

What about the pH after (protocol 2, Wt SV-129) of the same compound?
Its pH after is 7.35 ± 0.03.

And the pO2 after (protocol 2, Wt SV-129)?
The pO2 after was 158 ± 22 mmHg.

And the pCO2 before [2]?
The pCO2 before was 47.6 ± 4.3 mmHg.

And the pH before [2]?
The pH before was 7.36 ± 0.07.

And the pO2 before [2]?
Its pO2 before is 120 ± 38 mmHg.

And the pCO2 after (protocol 2, eNOS mutant)?
The pCO2 after was 51.0 ± 2.9 mmHg.

What about the pO2 after (protocol 2, eNOS mutant) of the same compound?
The pO2 after was 134 ± 35 mmHg.

And the pH after (protocol 2, eNOS mutant, 6 mg/kg ip 5 min, 3 and 6 hrs after ischemia)?
Its pH after is 7.33 ± 0.05.

What does the source list for `NNc1nncc2ccccc12` [hydralazine, hydralazine hydrochloride]?
pCO2 before [3]: 43.8 ± 5.9 mmHg; pO2 before [3]: 148 ± 16 mmHg; pCO2 after [4]: 47.3 ± 2.9 mmHg; pH after [4]: 7.30 ± 0.05; pO2 after [4]: 139 ± 28 mmHg; pH before (protocol 1, eNOS mutant, normotensive group treated with hydralazine, 10 min before MCA occlusion): 7.35 ± 0.04

Where a name gives a salt, the structure may show the parent alone.
